# Measured values: paper PMC10119322
# Amino acid sequences for entries named in this document (tags omitted).
# UniProt Q9BWF3: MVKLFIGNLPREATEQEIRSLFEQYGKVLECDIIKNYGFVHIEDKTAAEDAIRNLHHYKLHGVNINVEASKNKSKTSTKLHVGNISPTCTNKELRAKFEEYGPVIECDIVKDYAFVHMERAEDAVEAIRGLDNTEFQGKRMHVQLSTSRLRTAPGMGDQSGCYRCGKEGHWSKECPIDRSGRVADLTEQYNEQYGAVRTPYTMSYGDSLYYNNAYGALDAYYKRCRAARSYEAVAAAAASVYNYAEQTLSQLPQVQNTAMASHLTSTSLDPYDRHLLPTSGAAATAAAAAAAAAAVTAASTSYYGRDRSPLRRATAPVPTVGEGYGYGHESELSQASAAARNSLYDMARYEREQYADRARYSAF
# No constants are given. Whether binding was seen depends on the method and setting. In cells and extracts the contact can be indirect. Some binding calls cover weakened binding; strength is not graded here. Where a sequence is shown, tags or fusion partners need not be part of it.
# B1: HA-LKB1(1-243) (domain or fragment, UniProt Q15831 1-243)
# chain: MEVVDPQQLGMFTEGELMSVGMDTFIHRIDSTEVIYQPRRKRAKLIGKYLMGDLLGEGSYGKVKEVLDSETLCRRAVKILKKKKLRRIPNGEANVKKEIQLLRRLRHKNVIQLVDVLYNEEKQKMYMVMEYCVCGMQEMLDSVPEKRFPVCQAHGYFCQLIDGLEYLHSQGIVHKDIKPGNLLLTTGGTLKISDLGVAEALHPFAADDTCRTSQGSPAFQPPEIANGLDTFSGFKVDIWSAGV
# B2: HA-LKB1(1-317) (domain or fragment, UniProt Q15831 1-317)
# chain: MEVVDPQQLGMFTEGELMSVGMDTFIHRIDSTEVIYQPRRKRAKLIGKYLMGDLLGEGSYGKVKEVLDSETLCRRAVKILKKKKLRRIPNGEANVKKEIQLLRRLRHKNVIQLVDVLYNEEKQKMYMVMEYCVCGMQEMLDSVPEKRFPVCQAHGYFCQLIDGLEYLHSQGIVHKDIKPGNLLLTTGGTLKISDLGVAEALHPFAADDTCRTSQGSPAFQPPEIANGLDTFSGFKVDIWSAGVTLYNITTGLYPFEGDNIYKLFENIGKGSYAIPGDCGPPLSDLLKGMLEYEPAKRFSIRQIRQHSWFRKKHPPAE
# B3: HA-LKB1(88-243) (domain or fragment, UniProt Q15831 88-243)
# chain: IPNGEANVKKEIQLLRRLRHKNVIQLVDVLYNEEKQKMYMVMEYCVCGMQEMLDSVPEKRFPVCQAHGYFCQLIDGLEYLHSQGIVHKDIKPGNLLLTTGGTLKISDLGVAEALHPFAADDTCRTSQGSPAFQPPEIANGLDTFSGFKVDIWSAGV
# B4: HA-LKB1(88-433) (domain or fragment, UniProt Q15831 88-433)
# chain: IPNGEANVKKEIQLLRRLRHKNVIQLVDVLYNEEKQKMYMVMEYCVCGMQEMLDSVPEKRFPVCQAHGYFCQLIDGLEYLHSQGIVHKDIKPGNLLLTTGGTLKISDLGVAEALHPFAADDTCRTSQGSPAFQPPEIANGLDTFSGFKVDIWSAGVTLYNITTGLYPFEGDNIYKLFENIGKGSYAIPGDCGPPLSDLLKGMLEYEPAKRFSIRQIRQHSWFRKKHPPAEAPVPIPPSPDTKDRWRSMTVVPYLEDLHGADEDEDLFDIEDDIIYTQDFTVPGQVPEEEASHNGQRRGLPKAVCMNGTEAAQLSTKSRAEGRAPNPARKACSASSKIRRLSACKQQ
# Target: Flag-RBM4 (UniProt Q9BWF3)
# Assay: co-IP; KYSE150 cells co-transfected 24-48 h, with or without PS341 (bortezomib, 10 uM, 8 h); IP lysis buffer (50 mM Tris-HCl pH 7.4, 150 mM NaCl, 1 mM EDTA, 1% TritonX-100); lysate on anti-Flag M2 Affinity Gel at 4 °C overnight; western blot; in Fig. 4d increasing RBM4, in Fig. 4e increasing siRBM4
row,Binder,binding
1,B1,binds
2,B2,binds
3,B3,no binding
4,B4,no binding
